Measured values as given in PMC12248476.
These are yes or no findings as the source states them, for the method shown. In cells and extracts the contact can be indirect. Sequences can lack the tags named with a protein.

Target: V5-tagged PHD3
Test: co-IP; HEK293T cells co-transfected with Flag-FOXA1 and V5-PHD1, PHD2 or PHD3; IP with anti-V5, blot with anti-Flag

binding: no binding
B1: Flag-tagged FOXA1 (protein, UniProt P55317 1-472)
chain: MLGTVKMEGHETSDWNSYYADTQEAYSSVPVSNMNSGLGSMNSMNTYMTMNTMTTSGNMTPASFNMSYANPGLGAGLSPGAVAGMPGGSAGAMNSMTAAGVTAMGTALSPSGMGAMGAQQAASMNGLGPYAAAMNPCMSPMAYAPSNLGRSRAGGGGDAKTFKRSYPHAKPPYSYISLITMAIQQAPSKMLTLSEIYQWIMDLFPYYRQNQQRWQNSIRHSLSFNDCFVKVARSPDKPGKGSYWTLHPDSGNMFENGCYLRRQKRFKCEKQPGAGGGGGSGSGGSGAKGGPESRKDPSGASNPSADSPLHRGVHGKTGQLEGAPAPGPAASPQTLDHSGATATGGASELKTPASSTAPPISSGPGALASVPASHPAHGLAPHESQLHLKGDPHYSFNHPFSINNLMSSSEQQHKLDFKAYEQALQYSPYGSTLPASLPLGSASVTTRSPIEPSALEPAYYQGVYSRPVLNTS
